Common to all, as to assay: co-IP
For one experiment, the target named is T1, INA-myc (UniProt Q16352).
T1 sequence: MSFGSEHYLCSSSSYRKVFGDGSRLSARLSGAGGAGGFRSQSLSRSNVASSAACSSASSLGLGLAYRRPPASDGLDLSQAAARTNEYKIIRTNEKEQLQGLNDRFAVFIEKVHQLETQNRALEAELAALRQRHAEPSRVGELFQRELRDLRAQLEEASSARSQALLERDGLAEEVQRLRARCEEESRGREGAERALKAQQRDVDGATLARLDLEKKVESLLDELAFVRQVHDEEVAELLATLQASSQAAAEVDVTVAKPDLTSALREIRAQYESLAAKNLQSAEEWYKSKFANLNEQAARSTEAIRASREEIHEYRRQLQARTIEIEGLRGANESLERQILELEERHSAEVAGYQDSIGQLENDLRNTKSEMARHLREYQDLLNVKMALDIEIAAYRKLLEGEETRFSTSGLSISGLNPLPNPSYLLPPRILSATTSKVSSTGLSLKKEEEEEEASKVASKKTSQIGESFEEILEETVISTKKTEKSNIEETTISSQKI

Protein sequences, listed by entry. Tags and fused reporters are not part of them. Lines headed by an entry give the natural chain unless they say otherwise; changes in a name come on top.
UniProt Q6P5H2: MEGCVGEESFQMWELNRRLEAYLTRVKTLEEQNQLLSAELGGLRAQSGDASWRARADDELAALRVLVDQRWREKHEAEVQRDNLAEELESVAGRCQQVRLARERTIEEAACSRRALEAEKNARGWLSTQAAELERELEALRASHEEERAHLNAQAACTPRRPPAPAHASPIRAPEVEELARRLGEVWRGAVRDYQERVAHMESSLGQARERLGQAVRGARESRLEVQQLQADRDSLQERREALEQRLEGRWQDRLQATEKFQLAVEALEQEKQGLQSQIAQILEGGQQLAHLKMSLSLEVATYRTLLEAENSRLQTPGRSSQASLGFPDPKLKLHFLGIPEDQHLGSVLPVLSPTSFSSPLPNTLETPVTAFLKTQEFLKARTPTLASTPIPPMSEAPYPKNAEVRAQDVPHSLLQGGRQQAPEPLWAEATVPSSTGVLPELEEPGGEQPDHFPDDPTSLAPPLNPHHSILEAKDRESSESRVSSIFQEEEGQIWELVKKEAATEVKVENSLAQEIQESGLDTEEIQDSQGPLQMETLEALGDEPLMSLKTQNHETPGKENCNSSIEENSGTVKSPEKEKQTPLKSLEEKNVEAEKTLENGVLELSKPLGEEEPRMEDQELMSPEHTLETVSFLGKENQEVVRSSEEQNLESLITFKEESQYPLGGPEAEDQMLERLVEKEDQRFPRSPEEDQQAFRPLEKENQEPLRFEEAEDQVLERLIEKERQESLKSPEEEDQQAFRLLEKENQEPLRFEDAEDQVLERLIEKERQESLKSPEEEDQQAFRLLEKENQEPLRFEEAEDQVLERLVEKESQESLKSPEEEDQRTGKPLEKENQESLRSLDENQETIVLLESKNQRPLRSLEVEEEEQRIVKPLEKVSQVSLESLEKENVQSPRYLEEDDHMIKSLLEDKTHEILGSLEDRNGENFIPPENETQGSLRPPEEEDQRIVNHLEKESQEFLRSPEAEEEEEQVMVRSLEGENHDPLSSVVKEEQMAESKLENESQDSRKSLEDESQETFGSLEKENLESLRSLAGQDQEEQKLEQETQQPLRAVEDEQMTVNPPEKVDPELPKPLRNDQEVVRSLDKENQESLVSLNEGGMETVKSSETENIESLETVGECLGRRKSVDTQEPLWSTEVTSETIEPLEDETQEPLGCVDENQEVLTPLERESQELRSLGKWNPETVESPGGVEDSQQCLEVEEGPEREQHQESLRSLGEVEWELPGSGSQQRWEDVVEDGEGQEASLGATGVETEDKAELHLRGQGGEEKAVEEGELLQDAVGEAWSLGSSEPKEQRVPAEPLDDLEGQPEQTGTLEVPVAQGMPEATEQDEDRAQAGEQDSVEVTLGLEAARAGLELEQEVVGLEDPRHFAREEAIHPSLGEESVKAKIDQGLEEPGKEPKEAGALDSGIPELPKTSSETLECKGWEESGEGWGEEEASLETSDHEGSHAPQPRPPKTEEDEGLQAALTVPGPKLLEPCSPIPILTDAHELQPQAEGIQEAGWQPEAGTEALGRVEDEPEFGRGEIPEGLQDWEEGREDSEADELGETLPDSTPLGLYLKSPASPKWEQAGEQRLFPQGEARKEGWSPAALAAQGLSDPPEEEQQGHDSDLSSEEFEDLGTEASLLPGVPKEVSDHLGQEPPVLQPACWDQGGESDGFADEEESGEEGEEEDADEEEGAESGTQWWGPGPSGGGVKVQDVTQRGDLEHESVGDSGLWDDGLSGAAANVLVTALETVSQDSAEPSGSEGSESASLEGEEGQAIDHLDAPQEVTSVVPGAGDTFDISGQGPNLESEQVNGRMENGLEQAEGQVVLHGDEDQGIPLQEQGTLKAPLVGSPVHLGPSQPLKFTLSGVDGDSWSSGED
UniProt Q15078: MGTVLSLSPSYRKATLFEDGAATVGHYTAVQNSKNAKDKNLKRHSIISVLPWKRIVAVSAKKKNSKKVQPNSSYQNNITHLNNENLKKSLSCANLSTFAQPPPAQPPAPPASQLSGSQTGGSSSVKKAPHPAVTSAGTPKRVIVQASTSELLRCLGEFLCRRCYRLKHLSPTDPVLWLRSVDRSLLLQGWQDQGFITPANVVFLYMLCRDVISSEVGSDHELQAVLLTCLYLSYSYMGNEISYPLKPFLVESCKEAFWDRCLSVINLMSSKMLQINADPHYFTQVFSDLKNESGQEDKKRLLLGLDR

Experiment [1] addresses Nestin-myc (mouse) (UniProt Q6P5H2).
Experiment [2] has the same target. This is another data set of the same source.
For experiment [3] the target is unchanged. The source holds these as a separate data set.
Another experiment deals with Nestin-myc T316A (mouse) (UniProt Q6P5H2).
The target of a further experiment is p35 (UniProt Q15078).

Read-outs that look alike come from different tables or passages of the source. Results are given in words; binding and its absence hold for the method and conditions named. Binding seen in cells or lysates may run through a third protein. Some results given as binding are weak or reduced against the parent protein; the word gives no strength. Tags and fused reporters may be left off the sequences shown.

B1: GFP-DCX (protein, UniProt O43602 1-365)
chain: MELDFGHFDERDKTSRNMRGSRMNGLPSPTHSAHCSFYRTRTLQALSNEKKAKKVRFYRNGDRYFKGIVYAVSSDRFRSFDALLADLTRSLSDNINLPQGVRYIYTIDGSRKIGSMDELEEGESYVCSSDNFFKKVEYTKNVNPNWSVNVKTSANMKAPQSLASSNSAQARENKDFVRPKLVTIIRSGVKPRKAVRVLLNKKTAHSFEQVLTDITEAIKLETGVVKKLYTLDGKQVTCLHDFFGDDDVFIACGPEKFRYAQDDFSLDENECRVMKGNPSATAGPKASPTPQKTSAKSPGPMRRSKSPADSGNDQDANGTSSSQLSTPKSKQSPISTPTSPGSLRKHKDLYLPLSLDDSDSLGDSM
Turning to B1, the binding entry was “no binding” in the experiment with INA-myc; “binds” with Nestin-myc (mouse) [1]; “binds” with Nestin-myc (mouse) [2]; “binds” with Nestin-myc (mouse) [3]; “binds” with Nestin-myc T316A (mouse); “binds” in the experiment with p35.

Source of the values: paper doi:10.1101/695155.
